Experimental data from paper PMC4884984, “Identification of approved and investigational drugs that inhibit hypoxia-inducible factor-1 signaling” (Oncotarget, 2016).

Tested on: HIF-1α–NanoLuc
Experiment: HIF-1α–NanoLuc reporter gene assay (qHTS primary and confirmatory screens)
Type: cell-based
Conditions: Homo sapiens; Table S1; primary screen, hypoxia 1% O2, 18 h

O=C(CCCCCCC(=O)Nc1ccccc1)NO [Vorinostat] showed an IC50 of 1.5 µM.
